Data taken from the supplement of paper PMC6411743.
± gives the standard deviation of the averaged measurements. The entries are a selection whose mix differs from that of the whole data set. Most entries show no effect beyond the scatter of the controls.

Target: UniProt P07900 and related entries
Experiment: NP40-soluble protein abundance relative to vehicle (solubility fold change) (ratio); higher = more soluble protein in presence of ATP
How it was run: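 Each value is a fold change relative to the detergent-processed vehicle, calculated per replicate from vsn-normalised intensities. Jurkat crude lysate received eight concentrations (0.1 to 10 mM) for 10 min at room temperature and 3 min at 37 °C, then was solubilised in 0.8% NP40 with benzonase (60 min, 4 °C). The ultracentrifuged supernatant was TMT-labelled and run by LC-MS/MS in three independent experiments.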

Nc1ncnc2c1ncn2[C@@H]1O[C@H](COP(=O)(O)OP(=O)(O)OP(=O)(O)O)[C@@H](O)[C@H]1O [adenosine triphosphate]
NP40-soluble protein abundance (concentration: 0.1mM): 1.01 ± 0.026 | NP40-soluble protein abundance (concentration: 0.5mM): 1.01 ± 0.014
